## Primary screen of a compound library

Chains of the proteins cited; added tags and fusions are not shown. Residues count along the entry.
UniProt A4I591, 1-473: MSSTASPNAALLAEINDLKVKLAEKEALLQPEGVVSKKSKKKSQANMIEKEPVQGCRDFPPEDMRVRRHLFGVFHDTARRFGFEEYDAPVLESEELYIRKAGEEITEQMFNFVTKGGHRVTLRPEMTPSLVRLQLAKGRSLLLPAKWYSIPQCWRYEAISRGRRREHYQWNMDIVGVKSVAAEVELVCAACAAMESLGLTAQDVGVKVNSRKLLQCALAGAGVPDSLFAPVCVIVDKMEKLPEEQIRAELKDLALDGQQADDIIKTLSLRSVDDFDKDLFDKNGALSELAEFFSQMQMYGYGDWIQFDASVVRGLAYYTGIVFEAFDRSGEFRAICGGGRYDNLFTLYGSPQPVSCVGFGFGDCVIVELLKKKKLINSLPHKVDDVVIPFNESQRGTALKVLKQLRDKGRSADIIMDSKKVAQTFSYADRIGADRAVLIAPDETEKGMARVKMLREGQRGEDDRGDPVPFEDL
UniProt I6X8D2, whole entry: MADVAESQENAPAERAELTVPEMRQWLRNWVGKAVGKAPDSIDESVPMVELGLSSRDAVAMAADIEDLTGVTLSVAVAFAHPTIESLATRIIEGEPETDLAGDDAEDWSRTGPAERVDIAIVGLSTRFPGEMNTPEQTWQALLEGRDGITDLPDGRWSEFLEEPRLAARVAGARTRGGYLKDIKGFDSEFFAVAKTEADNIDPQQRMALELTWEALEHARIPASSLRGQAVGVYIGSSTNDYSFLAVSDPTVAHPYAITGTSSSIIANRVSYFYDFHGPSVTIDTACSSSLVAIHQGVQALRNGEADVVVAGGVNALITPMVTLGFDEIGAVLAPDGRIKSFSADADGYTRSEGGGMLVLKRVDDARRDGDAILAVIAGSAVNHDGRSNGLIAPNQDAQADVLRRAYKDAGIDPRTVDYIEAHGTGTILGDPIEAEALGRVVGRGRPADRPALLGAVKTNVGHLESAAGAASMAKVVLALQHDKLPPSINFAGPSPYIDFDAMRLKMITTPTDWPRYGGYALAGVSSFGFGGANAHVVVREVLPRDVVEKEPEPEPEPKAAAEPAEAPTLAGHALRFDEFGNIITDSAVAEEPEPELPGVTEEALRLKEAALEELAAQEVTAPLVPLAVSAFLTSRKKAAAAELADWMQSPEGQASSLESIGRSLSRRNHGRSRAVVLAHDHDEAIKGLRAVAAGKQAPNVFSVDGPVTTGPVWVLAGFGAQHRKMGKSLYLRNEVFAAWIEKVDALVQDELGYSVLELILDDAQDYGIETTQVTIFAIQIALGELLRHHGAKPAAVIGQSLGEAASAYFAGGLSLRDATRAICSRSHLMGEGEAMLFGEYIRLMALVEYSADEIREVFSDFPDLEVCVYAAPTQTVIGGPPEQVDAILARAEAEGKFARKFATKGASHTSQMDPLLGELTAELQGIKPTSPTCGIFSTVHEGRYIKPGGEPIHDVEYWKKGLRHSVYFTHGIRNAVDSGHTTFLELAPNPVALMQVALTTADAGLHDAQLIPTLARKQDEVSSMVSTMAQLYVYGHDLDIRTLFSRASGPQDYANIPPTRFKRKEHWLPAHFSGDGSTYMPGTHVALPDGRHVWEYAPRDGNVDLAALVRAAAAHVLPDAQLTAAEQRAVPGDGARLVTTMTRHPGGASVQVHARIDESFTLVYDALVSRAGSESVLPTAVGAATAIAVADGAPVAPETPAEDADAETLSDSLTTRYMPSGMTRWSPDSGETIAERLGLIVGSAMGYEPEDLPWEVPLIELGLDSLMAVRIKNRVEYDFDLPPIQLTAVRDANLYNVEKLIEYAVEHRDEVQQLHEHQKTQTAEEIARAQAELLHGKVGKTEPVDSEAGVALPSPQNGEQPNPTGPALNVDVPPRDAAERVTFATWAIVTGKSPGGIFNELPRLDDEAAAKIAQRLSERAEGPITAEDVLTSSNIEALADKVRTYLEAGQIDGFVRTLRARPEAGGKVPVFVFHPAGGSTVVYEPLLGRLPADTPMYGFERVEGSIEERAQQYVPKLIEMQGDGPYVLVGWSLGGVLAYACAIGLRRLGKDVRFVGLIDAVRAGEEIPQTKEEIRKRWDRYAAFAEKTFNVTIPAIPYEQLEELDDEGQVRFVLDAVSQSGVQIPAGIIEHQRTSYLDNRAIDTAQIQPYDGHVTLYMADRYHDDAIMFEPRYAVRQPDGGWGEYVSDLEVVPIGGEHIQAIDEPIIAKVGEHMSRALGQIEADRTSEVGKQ

Leishmania in macrophages: 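Cell assay of Leishmania donovani living inside macrophages; the read-out is not stated. Tested at 30 µM. The record gives no direction; compounds that gave an IC50 in retests scored well above the rest, so higher reads as stronger inhibition. Of about 69,000 compounds tested this way, about 1,000 (1.5%) reached 50% or more in at least one test.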
LiHisRS: 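Histidine-tRNA ligase, Leishmania infantum (UniProt A4I591). Enzyme assay of histidyl-tRNA synthetase; the read-out is not stated. Tested at 30 µM. The record gives no direction; compounds that gave an IC50 in retests scored well above the rest, so higher reads as stronger inhibition. The assay is labelled LdHisRS but filed under L. infantum. Size under these conditions: about 69,000 compounds, about 410 of them at 50% or above in at least one test.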
Pks13 thioesterase: 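Polyketide synthase Pks13, Mycobacterium tuberculosis (UniProt I6X8D2). Enzyme assay of the thioesterase domain of polyketide synthase 13; the read-out is not stated. Concentration: 30 µM. The record gives no direction; the compounds picked for IC50 retests had high values, so higher reads as stronger inhibition. About 67,000 compounds were tested under these conditions; 0.46% (about 300) showed 50% or more at least once.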

Results are given as percent effect.
The controls that fix the scale are not given in the record; negative values are as filed.
Compounds were drawn at random from those tested, without regard to their results.
A dash means the value is not listed here; it may have been measured.

SMILES: [H][C@]12CC[C@]([H])(CN(S(=O)(=O)CCC)C1)N(Cc1cscn1)C2=O
Leishmania in macrophages: 12.01

SMILES: Cc1nc(C)n(C2CCCN(C(=O)CCCn3ccnc3)C2)n1 (stereo not drawn)
Leishmania in macrophages: 21.15
LiHisRS: 7.692
Pks13 thioesterase: -38.45

SMILES: O=C1COC2(CCN(C(=O)C3CC=CC3)CC2)CN1Cc1cccnc1
LiHisRS: 7.965
Pks13 thioesterase: -14.06

SMILES: COc1ccc(-c2cc(C3CCNCC3)nc(C)n2)cc1.Cl
Leishmania in macrophages: 10.04

SMILES: COc1ccccc1C(=O)N1CC(=O)N(CC(C)C)CC(O)C1 (stereo not drawn)
Leishmania in macrophages: -6.131
LiHisRS: 14.29
Pks13 thioesterase: 12.73

SMILES: CCc1ccc(S(=O)(=O)Nc2cnc(N3CCOCC3)nc2)cc1
Leishmania in macrophages: 5.609
LiHisRS: 8.475
Pks13 thioesterase: -4.608

SMILES: O=C(O)C(F)(F)F.[H][C@@]12CN(CC3CC3)CCO[C@]1([H])CN(C(=O)c1cocn1)C2
Leishmania in macrophages: 16.02

SMILES: CO[C@H]1CCN(C2CCOCC2)C[C@@H]1Cc1ccccc1.O=C(O)C(F)(F)F
Leishmania in macrophages: 0.5648

SMILES: Cc1cc(=O)n(CC(=O)Nc2ccc(Cl)cc2)nc1C
Leishmania in macrophages: 4.691
LiHisRS: 7.2
Pks13 thioesterase: -22.46

SMILES: CC(C)c1noc(CN(C)C(=O)c2ncn[nH]2)n1
Leishmania in macrophages: 7.377
LiHisRS: 11.43
Pks13 thioesterase: -122

SMILES: CCC(C)C(=O)NCc1cccc(N2CCCCC2=O)c1 (stereo not drawn)
Leishmania in macrophages: 7.421
LiHisRS: 4.959
Pks13 thioesterase: -17.22

SMILES: CN1C(=O)C(c2cccnc2)CC12CCN(Cc1nccs1)CC2 (stereo not drawn)
Leishmania in macrophages: 8.099
LiHisRS: 5.66
Pks13 thioesterase: -10.41

SMILES: Clc1cccc(Cl)c1CNCCOc1ccccn1
Leishmania in macrophages: -25.86
LiHisRS: 12.36
Pks13 thioesterase: -17.17

SMILES: Cc1cc(C)n(CC2CCCN2CC(=O)N(C)C)n1 (stereo not drawn)
Leishmania in macrophages: 30.2
LiHisRS: 9.524
Pks13 thioesterase: -14.74

SMILES: c1cc(C2CCN(c3cnccn3)CC2)ncn1
Leishmania in macrophages: -26.44
LiHisRS: 8.054
Pks13 thioesterase: -7.76

SMILES: O=C(NC1CCCN(c2ccc(OC(F)F)cc2)C1)c1c[nH]nn1 (stereo not drawn)
Leishmania in macrophages: -7.717
LiHisRS: 28.57
Pks13 thioesterase: -329.1

SMILES: CC(C)c1nc(-c2cc(C(=O)N3CCN(C)CC3)c3ccccn23)cs1
LiHisRS: 18
Pks13 thioesterase: 0.1726

SMILES: [H][C@]1([C@H](O)c2ccc(NC(=O)COC)cc2)COCC(=O)N1CC(C)C
Leishmania in macrophages: -6.157

SMILES: CN(CCc1ccccn1)CCc1nccs1
Leishmania in macrophages: -19.59
LiHisRS: 12
Pks13 thioesterase: -20.56

SMILES: c1ccc(CN2CCCC2)c(CNc2cncc3nnnn23)c1
Leishmania in macrophages: 22.92
LiHisRS: 19.35
Pks13 thioesterase: -8.983

SMILES: CC(c1nc(C2CC2)no1)N1CCN(Cc2ccccc2F)CC1 (stereo not drawn)
Leishmania in macrophages: 29.41
LiHisRS: 5.405
Pks13 thioesterase: 20.86

SMILES: O=S(=O)(Nc1ccc(N2CCOCC2)cn1)c1ccc(F)cc1
Leishmania in macrophages: 13.89
LiHisRS: 22.37
Pks13 thioesterase: 3.024

SMILES: O=C(NCCc1nncn1C1CC1)c1cc2ccccn2c1
Leishmania in macrophages: 13.58
LiHisRS: 22.45
Pks13 thioesterase: -0.9677

SMILES: CS(=O)(=O)N[C@H]1CCO[C@]2(CCN(C(=O)c3ccccn3)C2)C1.O=C(O)C(F)(F)F
Leishmania in macrophages: -11.31

SMILES: CC(C(=O)Nc1ccc(N2CCCCC2)nc1)n1ccnc1 (stereo not drawn)
Leishmania in macrophages: 14.76
LiHisRS: 19.64
Pks13 thioesterase: -9.581

Once more, the final 3:

SMILES	Leishmania in macrophages	LiHisRS	Pks13 thioesterase
O=C(NCCc1nncn1C1CC1)c1cc2ccccn2c1	13.58	22.45	-0.9677
CS(=O)(=O)N[C@H]1CCO[C@]2(CCN(C(=O)c3ccccn3)C2)C1.O=C(O)C(F)(F)F	-11.31	-	-
CC(C(=O)Nc1ccc(N2CCCCC2)nc1)n1ccnc1 (stereo not drawn)	14.76	19.64	-9.581

Measurements from “University of Dundee, Small-Polar-MMV Screening Library” (2021), ChEMBL document CHEMBL3988442.